Non-standard residues stand in square brackets, D forms with d. Residues, ends and D or L forms follow the SMILES beside them.
Test system: HEK293 cells
Type: cell-based, human
Settings: HEK293 vs A. baumannii
Experimental: Cell viability assays were performed by using the CellTiter 96® AQueous Non-Radioactive Cell Proliferation Assay (Promega, United States), in which 3-(4,5-dimethylthiazol-2-yl)-5-(3-carboxymethoxyphenyl)-2-(4-sulfophenyl)-2H-tetrazolium salt (MTS) can be reduced to purple-colored formazan by intact cells. […] The test peptide was dissolved in water and filtered through a 0.2-μm filter. The peptide concentration was quantitated by the UV280 to make a 5,120 μg/mL stock solution and then serially diluted in serum-free DMEM. On the second day, the medium was replaced with 100 μL of serum-free DMEM containing different peptide concentrations and incubated for 1 or 24 h. Serum-free DMEM without peptide was used as a negative control and medium containing 1% Triton X-100 was used as a positive control. One milligram of MTS powder was dissolved in 0.5 mL of Dulbecco’s phosphate-buffered saline (DPBS). The MTS solution was mixed with one-twentieth of a phenazine methosulfate (PMS) solution ([…]). To each well, 20 μL of the MTS/PMS solution was added. After 3 h, the absorbance was measured with an Infinite M1000 pro (Tecan Austria GmbH, Austria) at a wavelength of 490 nm. Cell viability was calculated using the following equation. Cellviability=[(A-Ap)/(An-Ap)]×100% A is the UV490 of the peptide-treated sample An is the UV490 of the sample without peptide (negative control) Ap is the UV490 of the Triton-treated sample (positive control)

| Molecule | Selectivity index (SI) between HEK293 cells and A. baumannii |
| --- | --- |
| CC(=O)N[C@@H](Cc1c[nH]c2ccccc12)C(=O)N[C@H](CCCCN)C(=O)N[C@H](CCCCN)C(=O)N[C@H](CC(C)C)C(=O)N[C@H](CCCCN)C(=O)N[C@H](CCCCN)C(=O)N[C@H](CC(C)C)C(=O)N[C@H](CC(C)C)C(=O)N[C@H](CCCCN)C(=O)N[C@H](CCCCN)C(=O)N[C@H](CC(C)C)C(=O)N[C@H](CCCCN)C(=O)N[C@H](CCCCN)C(=O)N[C@H](CC(C)C)C(N)=O [pepdD2, Ac-Wkklkkllkklkkl-NH2] (Ac-W[dK][dK][dL][dK][dK][dL][dL][dK][dK][dL][dK][dK][dL]-NH2) | 2.6 |
| Ac-WKKLKKLLKKL-NH2 [pepD3] | 8.5 |
| Ac-WKKLKKLLKKLKKL-NH2 [pepD2] | 4.7 |
